Results are given in words; binding and its absence hold for the method and conditions named. In cells and extracts the contact can be indirect. Some binding calls cover weakened binding; strength is not graded here.
Tests used:
Assay in all cases: co-IP; 500 ug RS4;11 or SEM (t(4;11)) nuclear extract in 20 mM Tris-HCl pH 7.5, 20% glycerol, 300 mM KCl, 5 mM EDTA; overnight at 4°C with anti-AF4-N, anti-RUNX1 or anti-MLL-C (rabbit IgG as control); protein A and G Dynabeads; wash at 150 mM KCl; Western blot
[1] = molecular target: MLL-C (human (endogenous in RS4;11, SEM and CCRF-CEM)) (UniProt Q03164)
[2] = molecular target: T1, wild-type AF4 (human (endogenous in RS4;11, SEM and CCRF-CEM)) (UniProt P51825)
T1 sequence: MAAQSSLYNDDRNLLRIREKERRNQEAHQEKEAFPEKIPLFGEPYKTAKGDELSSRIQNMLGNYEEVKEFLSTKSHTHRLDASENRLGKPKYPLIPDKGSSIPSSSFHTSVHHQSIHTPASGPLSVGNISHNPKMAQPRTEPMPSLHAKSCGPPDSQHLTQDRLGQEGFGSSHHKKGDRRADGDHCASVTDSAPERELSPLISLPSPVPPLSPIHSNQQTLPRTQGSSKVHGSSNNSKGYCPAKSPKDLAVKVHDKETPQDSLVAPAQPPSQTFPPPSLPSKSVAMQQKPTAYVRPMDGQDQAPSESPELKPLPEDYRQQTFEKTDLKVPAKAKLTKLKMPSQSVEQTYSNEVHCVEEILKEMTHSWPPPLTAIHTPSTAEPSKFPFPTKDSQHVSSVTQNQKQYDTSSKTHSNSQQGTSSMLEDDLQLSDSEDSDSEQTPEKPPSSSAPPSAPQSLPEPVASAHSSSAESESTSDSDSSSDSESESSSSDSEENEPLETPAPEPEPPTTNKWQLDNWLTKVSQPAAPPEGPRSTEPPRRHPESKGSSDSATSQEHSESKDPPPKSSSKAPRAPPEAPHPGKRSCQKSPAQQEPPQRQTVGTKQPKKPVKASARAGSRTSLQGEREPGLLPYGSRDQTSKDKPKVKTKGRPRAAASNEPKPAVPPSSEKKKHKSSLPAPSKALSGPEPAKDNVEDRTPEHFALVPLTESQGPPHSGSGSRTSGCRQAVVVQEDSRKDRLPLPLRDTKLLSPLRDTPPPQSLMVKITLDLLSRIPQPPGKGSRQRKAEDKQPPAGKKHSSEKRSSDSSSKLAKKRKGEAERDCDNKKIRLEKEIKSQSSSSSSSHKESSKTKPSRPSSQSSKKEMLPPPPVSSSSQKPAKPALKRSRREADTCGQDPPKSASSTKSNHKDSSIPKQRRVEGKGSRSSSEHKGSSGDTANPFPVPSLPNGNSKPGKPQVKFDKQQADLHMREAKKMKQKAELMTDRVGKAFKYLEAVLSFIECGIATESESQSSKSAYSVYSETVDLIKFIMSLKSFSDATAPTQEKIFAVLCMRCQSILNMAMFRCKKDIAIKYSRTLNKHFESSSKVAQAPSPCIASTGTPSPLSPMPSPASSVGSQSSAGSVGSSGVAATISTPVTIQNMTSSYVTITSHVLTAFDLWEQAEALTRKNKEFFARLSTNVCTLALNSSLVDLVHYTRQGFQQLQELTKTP

Amino acid sequences for entries named in this document (tags omitted). Residues count along the entry.
UniProt Q03164, residues 2719-3969: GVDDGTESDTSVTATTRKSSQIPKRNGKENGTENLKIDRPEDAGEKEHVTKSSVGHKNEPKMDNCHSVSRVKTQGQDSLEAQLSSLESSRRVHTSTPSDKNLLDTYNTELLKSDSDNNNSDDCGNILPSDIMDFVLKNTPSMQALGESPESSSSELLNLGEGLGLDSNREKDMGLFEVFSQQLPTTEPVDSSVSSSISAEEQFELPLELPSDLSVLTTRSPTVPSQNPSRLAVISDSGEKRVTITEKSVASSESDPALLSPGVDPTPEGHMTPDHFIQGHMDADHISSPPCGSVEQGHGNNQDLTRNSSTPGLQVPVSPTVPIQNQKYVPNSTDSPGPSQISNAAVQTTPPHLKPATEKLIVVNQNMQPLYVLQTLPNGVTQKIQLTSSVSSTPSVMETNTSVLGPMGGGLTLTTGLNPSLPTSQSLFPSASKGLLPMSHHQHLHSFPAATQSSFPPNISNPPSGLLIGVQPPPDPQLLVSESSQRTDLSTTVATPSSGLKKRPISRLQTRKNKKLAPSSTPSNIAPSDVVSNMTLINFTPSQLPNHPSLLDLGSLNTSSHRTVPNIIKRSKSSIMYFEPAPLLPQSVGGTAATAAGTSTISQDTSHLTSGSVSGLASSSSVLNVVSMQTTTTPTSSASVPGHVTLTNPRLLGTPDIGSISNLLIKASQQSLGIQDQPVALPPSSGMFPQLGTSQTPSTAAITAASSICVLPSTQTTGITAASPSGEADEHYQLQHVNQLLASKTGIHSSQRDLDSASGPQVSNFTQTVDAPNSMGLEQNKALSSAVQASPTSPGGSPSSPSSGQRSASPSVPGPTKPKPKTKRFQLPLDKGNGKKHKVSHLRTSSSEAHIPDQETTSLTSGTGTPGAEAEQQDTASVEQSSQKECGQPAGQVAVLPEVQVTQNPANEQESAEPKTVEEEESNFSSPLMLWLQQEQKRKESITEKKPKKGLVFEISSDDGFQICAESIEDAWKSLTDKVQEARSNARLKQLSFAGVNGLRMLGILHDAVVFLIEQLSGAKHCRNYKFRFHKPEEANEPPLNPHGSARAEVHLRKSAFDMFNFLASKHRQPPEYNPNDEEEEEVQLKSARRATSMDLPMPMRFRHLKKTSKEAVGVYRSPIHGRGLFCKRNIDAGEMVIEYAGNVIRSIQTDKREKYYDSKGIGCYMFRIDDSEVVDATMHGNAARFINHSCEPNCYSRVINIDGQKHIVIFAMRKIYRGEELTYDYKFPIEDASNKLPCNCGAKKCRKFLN
UniProt Q01196: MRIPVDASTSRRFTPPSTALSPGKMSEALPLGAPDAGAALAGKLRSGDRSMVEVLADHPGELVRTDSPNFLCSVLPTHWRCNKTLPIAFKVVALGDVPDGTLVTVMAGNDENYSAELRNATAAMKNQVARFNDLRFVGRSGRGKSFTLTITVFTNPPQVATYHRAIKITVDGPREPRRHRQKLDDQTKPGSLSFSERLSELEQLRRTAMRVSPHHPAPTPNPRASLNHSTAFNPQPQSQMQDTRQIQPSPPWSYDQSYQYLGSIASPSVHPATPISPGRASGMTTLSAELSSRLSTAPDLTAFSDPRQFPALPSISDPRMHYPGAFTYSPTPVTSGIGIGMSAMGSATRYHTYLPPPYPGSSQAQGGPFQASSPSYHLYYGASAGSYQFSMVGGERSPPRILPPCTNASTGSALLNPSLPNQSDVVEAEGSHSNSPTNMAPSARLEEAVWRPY

[3] = molecular target: RUNX1 (human (endogenous in RS4;11, SEM and CCRF-CEM)) (UniProt Q01196)

| Substance | binding [1] | binding [2] | binding [3] |
| --- | --- | --- | --- |
| RUNX1 (from UniProt Q01196 1-453) | binds | binds | – |
| MLL-C (from UniProt Q03164 2719-3969) (domain or fragment) | – | binds | binds |

Reference: article PMC3607232
